The target of the assay is Niemann-Pick C1 (NPC1), full-length, with 3xFLAG tag (pcDNA3.1-NPC1-3FLAG) (human) (UniProt O15118). In words: co-IP.

The chains behind the UniProt entries cited, without tags or fusion partners. Residues count along the entry.
UniProt O15118, residues 23-1278: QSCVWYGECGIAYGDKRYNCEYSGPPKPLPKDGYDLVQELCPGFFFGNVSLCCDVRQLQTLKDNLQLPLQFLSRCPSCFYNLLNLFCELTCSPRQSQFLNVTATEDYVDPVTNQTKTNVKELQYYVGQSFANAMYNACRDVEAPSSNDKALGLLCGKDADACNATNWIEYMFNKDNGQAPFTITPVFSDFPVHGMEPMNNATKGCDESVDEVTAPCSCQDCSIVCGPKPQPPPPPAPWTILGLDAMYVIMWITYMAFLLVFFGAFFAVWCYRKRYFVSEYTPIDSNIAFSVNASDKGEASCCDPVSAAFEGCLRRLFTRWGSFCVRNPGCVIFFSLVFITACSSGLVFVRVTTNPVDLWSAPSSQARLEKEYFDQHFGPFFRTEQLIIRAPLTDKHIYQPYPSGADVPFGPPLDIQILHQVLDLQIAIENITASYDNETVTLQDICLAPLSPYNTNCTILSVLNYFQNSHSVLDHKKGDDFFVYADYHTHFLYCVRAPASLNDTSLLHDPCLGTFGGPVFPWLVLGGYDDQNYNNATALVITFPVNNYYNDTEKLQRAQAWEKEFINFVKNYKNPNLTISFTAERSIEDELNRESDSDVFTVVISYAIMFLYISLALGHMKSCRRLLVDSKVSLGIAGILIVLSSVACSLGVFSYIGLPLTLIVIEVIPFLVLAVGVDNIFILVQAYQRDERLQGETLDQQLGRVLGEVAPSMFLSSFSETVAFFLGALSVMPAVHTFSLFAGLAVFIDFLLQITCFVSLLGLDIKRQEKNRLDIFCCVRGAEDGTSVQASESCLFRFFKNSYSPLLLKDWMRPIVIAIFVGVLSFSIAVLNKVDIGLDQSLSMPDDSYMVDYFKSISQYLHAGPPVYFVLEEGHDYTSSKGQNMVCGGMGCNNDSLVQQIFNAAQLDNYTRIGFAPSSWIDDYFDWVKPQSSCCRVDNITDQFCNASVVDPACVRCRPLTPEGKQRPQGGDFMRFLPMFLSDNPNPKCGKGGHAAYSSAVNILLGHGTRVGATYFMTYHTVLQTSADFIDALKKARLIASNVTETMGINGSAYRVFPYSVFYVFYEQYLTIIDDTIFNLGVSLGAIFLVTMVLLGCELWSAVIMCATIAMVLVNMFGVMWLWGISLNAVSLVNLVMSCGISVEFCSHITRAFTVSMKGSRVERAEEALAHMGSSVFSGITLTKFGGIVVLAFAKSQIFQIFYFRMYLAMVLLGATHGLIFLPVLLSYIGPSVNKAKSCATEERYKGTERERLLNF
UniProt P03454, residues 18-565: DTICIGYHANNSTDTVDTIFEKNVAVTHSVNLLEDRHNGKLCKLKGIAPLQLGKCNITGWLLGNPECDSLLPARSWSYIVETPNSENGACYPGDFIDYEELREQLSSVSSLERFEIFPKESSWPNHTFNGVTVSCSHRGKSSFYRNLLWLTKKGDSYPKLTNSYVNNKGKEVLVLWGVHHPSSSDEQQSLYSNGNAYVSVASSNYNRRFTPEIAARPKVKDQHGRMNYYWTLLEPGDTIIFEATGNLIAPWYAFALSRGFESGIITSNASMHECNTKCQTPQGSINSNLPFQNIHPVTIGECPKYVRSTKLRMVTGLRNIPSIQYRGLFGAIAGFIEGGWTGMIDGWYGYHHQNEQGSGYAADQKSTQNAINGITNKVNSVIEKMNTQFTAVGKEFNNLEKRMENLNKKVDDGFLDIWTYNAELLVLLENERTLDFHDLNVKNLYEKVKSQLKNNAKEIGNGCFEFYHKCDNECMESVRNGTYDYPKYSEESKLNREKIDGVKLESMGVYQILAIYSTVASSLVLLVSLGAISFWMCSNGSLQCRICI
UniProt P03522, residues 17-511: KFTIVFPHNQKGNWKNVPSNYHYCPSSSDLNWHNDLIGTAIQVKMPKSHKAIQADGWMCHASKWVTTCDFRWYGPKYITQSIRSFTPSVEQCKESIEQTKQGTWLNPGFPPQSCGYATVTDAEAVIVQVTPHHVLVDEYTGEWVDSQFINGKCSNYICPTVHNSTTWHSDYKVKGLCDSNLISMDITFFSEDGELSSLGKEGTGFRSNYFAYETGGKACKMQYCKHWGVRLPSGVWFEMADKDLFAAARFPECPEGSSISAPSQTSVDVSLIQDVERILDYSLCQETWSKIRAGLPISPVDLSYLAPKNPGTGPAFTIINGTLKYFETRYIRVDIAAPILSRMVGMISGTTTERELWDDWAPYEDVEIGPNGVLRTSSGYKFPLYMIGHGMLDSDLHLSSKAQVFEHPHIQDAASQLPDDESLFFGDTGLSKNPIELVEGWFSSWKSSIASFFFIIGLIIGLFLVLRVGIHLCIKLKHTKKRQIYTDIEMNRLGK

These are yes or no findings as the source states them, for the method shown. Binding seen in cells or lysates may run through a third protein.

For the substance “influenza virus haemagglutinin (HA) from the A/WSN/1933 (H1N1) strain (from UniProt P03454)”, the binding entry is reported as “no binding”.
In the case of “vesicular stomatitis virus glycoprotein (VSV-G) (from UniProt P03522 17-511)”, the binding result was “no binding”.

These data come from publication PMC10762260.
